# Assay results taken from the supplement of paper PMC4635364.
# Structures can show the parent of a compound that is named as a salt. The list shows a part of the results. This data set is noisy: repeats of one test often differ as much as different tests do.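 Cells: ReNCell VM human fetal ventral-midbrain neural progenitors, differentiated mitogen-free. Blinded raters compared doublecortin-stained (early neurons) or tyrosine hydroxylase-stained (dopaminergic neurons) images with untreated wells, where 0 means no change. After repeats and both raters were averaged, compounds scoring 2 or above became hits for retesting.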
# Legend:
# ReNCell VM [1] = assay: neuronal differentiation score (DCX+ cell fraction vs untreated, manual image score) (score (-3 to 3)); higher = more neuronal differentiation; conditions: 2 uM, 2 weeks
# ReNCell VM [2] = assay: dopaminergic neuron differentiation score (TH+ cell fraction vs untreated, manual image score) (score (0 to 3)); higher = more TH+ dopaminergic neuron differentiation; conditions: 2 uM, 4 weeks, BDNF 10 ng/ml + GDNF 10 ng/ml
structure (smiles),measurement,setting,value
COc1cc2c(cc1OC)Cc1cc(OC)c(OC)cc1Cc1cc(OC)c(OC)cc1C2,neuronal differentiation score,ReNCell VM [1]; library: Spectrum,inactive: 0
same,dopaminergic neuron differentiation score,ReNCell VM [2]; library: Spectrum,inactive: 0
Cc1cc(/C=C/c2ccc3cc(N(C)C)ccc3[n+]2C)c(C)n1-c1ccccc1 [Pyrvinium pamoate],neuronal differentiation score,ReNCell VM [1]; library: Prestwick,inactive: 0
same,dopaminergic neuron differentiation score,ReNCell VM [2]; library: Prestwick,inactive: 0
COCCCOc1ccnc(C[S+]([O-])c2nc3ccccc3[nH]2)c1C (stereo not drawn) [Rabeprazole Sodium salt],neuronal differentiation score,ReNCell VM [1]; library: Prestwick,inactive: 0
same,dopaminergic neuron differentiation score,ReNCell VM [2]; library: Prestwick,inactive: 0
COc1ccc2c(c1)c(CC(=O)OCC(=O)O)c(C)n2C(=O)c1ccc(Cl)cc1,neuronal differentiation score,ReNCell VM [1]; library: Spectrum,inactive: 0
same,dopaminergic neuron differentiation score,ReNCell VM [2]; library: Spectrum,inactive: 0
NC(=O)N/N=C/c1ccc([N+](=O)[O-])o1,neuronal differentiation score,ReNCell VM [1]; library: Spectrum,inactive: 0
same,dopaminergic neuron differentiation score,ReNCell VM [2]; library: Spectrum,inactive: 0
CC(C)CC(NC(=O)OCC1c2ccccc2-c2ccccc21)C(=O)O (stereo not drawn),neuronal differentiation score,ReNCell VM [1]; library: Tocriscreen,inactive: 0
same,dopaminergic neuron differentiation score,ReNCell VM [2]; library: Tocriscreen,inactive: 0
CC(C)(O)c1ccccc1CC[C@@H](SCC1(CC(=O)O)CC1)c1cccc(/C=C/c2ccc3ccc(Cl)cc3n2)c1 [Montelukast],neuronal differentiation score,ReNCell VM [1]; library: Prestwick,inactive: 0
same,dopaminergic neuron differentiation score,ReNCell VM [2]; library: Prestwick,inactive: 0
COc1cc(/C=C/C(=O)CC(=O)/C=C/c2ccc(O)c(OC)c2)ccc1O [Curcumin],neuronal differentiation score,ReNCell VM [1]; library: Phytochemical,inactive: 0
same,dopaminergic neuron differentiation score,ReNCell VM [2]; library: Phytochemical,inactive: 0
COc1cc(=O)n(C)c2c(OCC3OC(C)(C)OC3(C)C)cccc12 (stereo not drawn) [foliosidine acetonide],neuronal differentiation score,ReNCell VM [1]; library: Natural,inactive: 0
same,dopaminergic neuron differentiation score,ReNCell VM [2]; library: Natural,inactive: 0
CC(C)SC(=N)N [S-Isopropylisothiourea hydrobromide],neuronal differentiation score,ReNCell VM [1]; library: Tocriscreen,inactive: 0
same,dopaminergic neuron differentiation score,ReNCell VM [2]; library: Tocriscreen,inactive: 0
CCCCNc1ccc(C(=O)OCCOCCOCCOCCOCCOCCOCCOCCOCCOC)cc1 [Benzonatate],neuronal differentiation score,ReNCell VM [1]; library: Prestwick,inactive: 0
same,dopaminergic neuron differentiation score,ReNCell VM [2]; library: Prestwick,inactive: 0
N#C[C@@H]1C[C@@H]2C[C@@H]2N1C(=O)[C@@H](N)C12CC3CC(CC(O)(C3)C1)C2,neuronal differentiation score,ReNCell VM [1]; library: Spectrum,inactive: 0
same,dopaminergic neuron differentiation score,ReNCell VM [2]; library: Spectrum,inactive: 0
COc1c2c(cc3c1C(NC(N)=O)[N+](C)(C)CC3)OCO2 (stereo not drawn),neuronal differentiation score,ReNCell VM [1]; library: Natural,inactive: 0
same,dopaminergic neuron differentiation score,ReNCell VM [2]; library: Natural,inactive: 0
CC(C)C[C@@H](C(=O)N[C@H](C(=O)OC1CCCC1)c1ccccc1)[C@H](O)C(=O)NO,neuronal differentiation score,ReNCell VM [1]; library: Tocriscreen,inactive: 0
same,dopaminergic neuron differentiation score,ReNCell VM [2]; library: Tocriscreen,inactive: 0
O=C(O)c1cc2cc(Cl)ccc2[nH]1,neuronal differentiation score,ReNCell VM [1]; library: Spectrum,inactive: 0
same,dopaminergic neuron differentiation score,ReNCell VM [2]; library: Spectrum,inactive: 0
COc1ccc2c(C)cc(=O)oc2c1,neuronal differentiation score,ReNCell VM [1]; library: Spectrum,inactive: 0
same,dopaminergic neuron differentiation score,ReNCell VM [2]; library: Spectrum,inactive: 0
C[C@H](CCC(=O)O)[C@H]1CC[C@H]2[C@@H]3CC[C@@H]4CCCC[C@]4(C)[C@H]3CC[C@]12C,neuronal differentiation score,ReNCell VM [1]; library: Spectrum,inactive: 0
same,dopaminergic neuron differentiation score,ReNCell VM [2]; library: Spectrum,inactive: 0
C[C@@H]1O[C@@H](Oc2c(-c3ccc(O)c(O)c3)oc3cc(O)cc(O)c3c2=O)[C@H](O)[C@H](O)[C@H]1O,neuronal differentiation score,ReNCell VM [1]; library: Spectrum,inactive: 0
same,dopaminergic neuron differentiation score,ReNCell VM [2]; library: Spectrum,inactive: 0
CC(C)/C(O)=C1/C(=O)O[C@@H](c2ccoc2)[C@]2(C)C(O)[C@@H](O)[C@@]34OC5(C)OC67CC(C)(C(O)[C@]6(O)[C@@H](O)[C@]3(O5)C12)[C@H](CC(=O)O)[C@]74C (stereo partly drawn),neuronal differentiation score,ReNCell VM [1]; library: Spectrum,inactive: 0
same,dopaminergic neuron differentiation score,ReNCell VM [2]; library: Spectrum,inactive: 0
Oc1nc2cc(Cl)c(Cl)cc2nc1O,neuronal differentiation score,ReNCell VM [1]; library: Spectrum,inactive: 0
same,dopaminergic neuron differentiation score,ReNCell VM [2]; library: Spectrum,inactive: 0
CC(C)NNC(=O)c1ccncc1 [Iproniazide phosphate],neuronal differentiation score,ReNCell VM [1]; library: Prestwick,inactive: 0
same,dopaminergic neuron differentiation score,ReNCell VM [2]; library: Prestwick,inactive: 0
CC(C(O)c1ccc(O)cc1)N1CCC(Cc2ccccc2)CC1 (stereo not drawn) [Ifenprodil hemitartrate],neuronal differentiation score,ReNCell VM [1]; library: Tocriscreen,inactive: 0
same,dopaminergic neuron differentiation score,ReNCell VM [2]; library: Tocriscreen,inactive: 0
COc1ccc([C@H]2CNC(=O)C2)cc1OC1CCCC1 [(S)-(+)-Rolipram],neuronal differentiation score,ReNCell VM [1]; library: Tocriscreen,inactive: 0
same,dopaminergic neuron differentiation score,ReNCell VM [2]; library: Tocriscreen,inactive: 0
CCC(=O)N1CCN(C(=O)c2ccccc2)CC1,neuronal differentiation score,ReNCell VM [1]; library: LOPAC,inactive: 0
same,dopaminergic neuron differentiation score,ReNCell VM [2]; library: LOPAC,inactive: 0
NCCC(=O)N[C@@H](Cc1c[nH]cn1)C(=O)O,neuronal differentiation score,ReNCell VM [1]; library: Spectrum,inactive: 0
same,dopaminergic neuron differentiation score,ReNCell VM [2]; library: Spectrum,inactive: 0
COc1cc(C(=O)OCCCN2CCCN(CCCOC(=O)c3cc(OC)c(OC)c(OC)c3)CC2)cc(OC)c1OC,neuronal differentiation score,ReNCell VM [1]; library: Spectrum,inactive: -1
same,dopaminergic neuron differentiation score,ReNCell VM [2]; library: Spectrum,inactive: 0
CC[C@H](CO)Nc1nc(Nc2cccc(-c3ccccn3)c2)c2ncn(C(C)C)c2n1 [(R)-DRF053 dihydrochloride],neuronal differentiation score,ReNCell VM [1]; library: Tocriscreen,inactive: 1
same,dopaminergic neuron differentiation score,ReNCell VM [2]; library: Tocriscreen,inactive: 0
COc1ccc2c(c1)O[C@@H]1COc3cc(OC)c(OC)cc3[C@@H]1C2=O,neuronal differentiation score,ReNCell VM [1]; library: Spectrum,inactive: 0
same,dopaminergic neuron differentiation score,ReNCell VM [2]; library: Spectrum,inactive: 0
N[C@@H](Cc1cc(-c2ccc(Cl)cc2Cl)cc(CP(=O)(O)O)c1O)C(=O)O,neuronal differentiation score,ReNCell VM [1]; library: Tocriscreen,inactive: 0
same,dopaminergic neuron differentiation score,ReNCell VM [2]; library: Tocriscreen,inactive: 0
O=C(O)/C=C/c1ccc(O)c(O)c1 [caffeic acid],neuronal differentiation score,ReNCell VM [1]; library: Natural,inactive: 1
same,dopaminergic neuron differentiation score,ReNCell VM [2]; library: Natural,inactive: 0
S=c1ccss1,neuronal differentiation score,ReNCell VM [1]; library: Spectrum,inactive: 0
same,dopaminergic neuron differentiation score,ReNCell VM [2]; library: Spectrum,inactive: 0
Nc1ccc(C(=O)O)c(O)c1 [4-aminosalicylic acid],neuronal differentiation score,ReNCell VM [1]; library: Prestwick,inactive: 0
same,dopaminergic neuron differentiation score,ReNCell VM [2]; library: Prestwick,inactive: 0
C=C1c2c(Cl)ccc(O)c2C(=O)C2=C(O)[C@]3(O)C(=O)C(C(N)=O)=C(O)[C@@H](N(C)C)[C@@H]3[C@@H](O)[C@H]12.O=C(O)c1cc(S(=O)(=O)O)ccc1O [Meclocycline sulfosalicylate],neuronal differentiation score,ReNCell VM [1]; library: Prestwick,inactive: 0
same,dopaminergic neuron differentiation score,ReNCell VM [2]; library: Prestwick,inactive: 0
CCCCCCCCCCC[C@@H](C[C@@H]1OC(=O)[C@H]1CCCCCC)OC(=O)[C@H](CC(C)C)NC=O [Orlistat],neuronal differentiation score,ReNCell VM [1]; library: Tocriscreen,inactive: 0
same,dopaminergic neuron differentiation score,ReNCell VM [2]; library: Tocriscreen,inactive: 0
CCCN(CCC)CCc1cccc2c1CC(=O)N2 [Ropinirole HCl],neuronal differentiation score,ReNCell VM [1]; library: Prestwick,inactive: 0
same,dopaminergic neuron differentiation score,ReNCell VM [2]; library: Prestwick,inactive: 1
NCCc1c[nH]cn1,neuronal differentiation score,ReNCell VM [1]; library: Spectrum,inactive: 0
same,dopaminergic neuron differentiation score,ReNCell VM [2]; library: Spectrum,inactive: 0
CC(=O)O[C@@]12CO[C@@H]1C[C@H](O)[C@@]1(C)C(=O)[C@H](O)C3=C(C)[C@@H](OC(=O)[C@H](O)[C@@H](NC(=O)OC(C)(C)C)c4ccccc4)C[C@@](O)([C@@H](OC(=O)c4ccccc4)[C@H]21)C3(C)C,neuronal differentiation score,ReNCell VM [1]; library: Spectrum,inactive: 0
same,dopaminergic neuron differentiation score,ReNCell VM [2]; library: Spectrum,inactive: 0
COCCCOc1cc(C[C@@H](C[C@H](N)[C@@H](O)C[C@H](C(=O)NCC(C)(C)C(N)=O)C(C)C)C(C)C)ccc1OC,neuronal differentiation score,ReNCell VM [1]; library: Spectrum,inactive: 0
same,dopaminergic neuron differentiation score,ReNCell VM [2]; library: Spectrum,inactive: 0
COc1cc(/C=C/C(=O)N2CCCCCCC2)cc(OC)c1OC,neuronal differentiation score,ReNCell VM [1]; library: Spectrum,inactive: 0
same,dopaminergic neuron differentiation score,ReNCell VM [2]; library: Spectrum,inactive: 0
N[C@@H](CSCSC[C@H](N)C(=O)O)C(=O)O,neuronal differentiation score,ReNCell VM [1]; library: Spectrum,inactive: 0
same,dopaminergic neuron differentiation score,ReNCell VM [2]; library: Spectrum,inactive: 0
"CCN(CC)CCOc1ccc(C(=C(Cl)c2ccccc2)c2ccccc2)cc1 [Clomiphene citrate (Z,E)]",neuronal differentiation score,ReNCell VM [1]; library: Prestwick,inactive: 0
same,dopaminergic neuron differentiation score,ReNCell VM [2]; library: Prestwick,inactive: 0
C[C@@H]1CN(c2c(F)c(N)c3c(=O)c(C(=O)O)cn(C4CC4)c3c2F)C[C@H](C)N1,neuronal differentiation score,ReNCell VM [1]; library: Spectrum,inactive: 0
same,dopaminergic neuron differentiation score,ReNCell VM [2]; library: Spectrum,inactive: 0
CCOC(=O)[C@H](CCc1ccccc1)N[C@@H](C)C(=O)N1CCC[C@H]1C(=O)O,neuronal differentiation score,ReNCell VM [1]; library: Spectrum,inactive: 0
same,dopaminergic neuron differentiation score,ReNCell VM [2]; library: Spectrum,inactive: 0
Nc1nc(=O)c2c([nH]1)NCC(CNc1ccc(C(=O)N[C@@H](CCC(=O)O)C(=O)O)cc1)N2C=O (stereo partly drawn),neuronal differentiation score,ReNCell VM [1]; library: Spectrum,inactive: 0
same,dopaminergic neuron differentiation score,ReNCell VM [2]; library: Spectrum,inactive: 0
OC[C@H]1O[C@@H](Oc2cc(O)cc(/C=C/c3ccc(O)cc3)c2)[C@H](O)[C@@H](O)[C@@H]1O,neuronal differentiation score,ReNCell VM [1]; library: Spectrum,inactive: 0
same,dopaminergic neuron differentiation score,ReNCell VM [2]; library: Spectrum,inactive: 0
O=C(O)c1cc(/N=N/c2ccc(S(=O)(=O)Nc3ccccn3)cc2)ccc1O [Sulfasalazine],neuronal differentiation score,ReNCell VM [1]; library: Prestwick,inactive: 0
same,dopaminergic neuron differentiation score,ReNCell VM [2]; library: Prestwick,inactive: 0
C[C@@H]1O[C@@H](O[C@@H]2[C@@H](O)[C@H](OCCc3ccc(O)c(O)c3)O[C@H](CO)[C@H]2OC(=O)/C=C/c2ccc(O)c(O)c2)[C@H](O)[C@H](O)[C@H]1O [acteoside],neuronal differentiation score,ReNCell VM [1]; library: Natural,inactive: 0
same,dopaminergic neuron differentiation score,ReNCell VM [2]; library: Natural,inactive: 0
"O=C1C=C(O)c2ccccc2C1=O [2-hydroxy-1,4-naphthoquinone]",neuronal differentiation score,ReNCell VM [1]; library: Natural,inactive: 1
same,dopaminergic neuron differentiation score,ReNCell VM [2]; library: Natural,inactive: 0
Cc1cc(C)nc(NS(=O)(=O)c2ccc(N)cc2)n1,neuronal differentiation score,ReNCell VM [1]; library: Spectrum,inactive: -1
same,dopaminergic neuron differentiation score,ReNCell VM [2]; library: Spectrum,inactive: 0
CN1[C@@H]2CC[C@H]1C[C@@H](OC(=O)c1c[nH]c3ccccc13)C2,neuronal differentiation score,ReNCell VM [1]; library: Spectrum,inactive: 0
same,dopaminergic neuron differentiation score,ReNCell VM [2]; library: Spectrum,inactive: 0
C[C@H](NC[C@H](O)CP(=O)(O)Cc1ccccc1)c1ccc(Cl)c(Cl)c1,neuronal differentiation score,ReNCell VM [1]; library: Tocriscreen,inactive: 0
same,dopaminergic neuron differentiation score,ReNCell VM [2]; library: Tocriscreen,inactive: 0
CC(Cc1ccc(O)c(O)c1)(NN)C(=O)O (stereo not drawn) [S-(-)-Carbidopa],neuronal differentiation score,ReNCell VM [1]; library: LOPAC,inactive: 1
same,dopaminergic neuron differentiation score,ReNCell VM [2]; library: LOPAC,inactive: 0
CN1Cc2c(C(=O)OC(C)(C)C)ncn2-c2ccsc2C1=O,neuronal differentiation score,ReNCell VM [1]; library: Tocriscreen,inactive: 0
same,dopaminergic neuron differentiation score,ReNCell VM [2]; library: Tocriscreen,inactive: 0
CC(=O)O[C@H]1CC[C@@]2(C)[C@H](CC[C@@H]3[C@@H]2CC[C@]2(C)[C@@H]4[C@H](C[C@@H]32)O[C@]2(CC[C@@H](C)CO2)[C@H]4C)C1,neuronal differentiation score,ReNCell VM [1]; library: Spectrum,inactive: 0
same,dopaminergic neuron differentiation score,ReNCell VM [2]; library: Spectrum,inactive: 0
